Reference: PubChem BioAssay AID1259254 (NCATS, 2017)
This is a random part of about 59,000 reagents tested. Over the whole deposit, about 1,550 (2.6%) got an active call. 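G2 share is only a proxy for re-replication; each gene was hit by three separate siRNAs, and active genes were retested.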 Entries without a mark were called inactive. Further read-outs or replicates are left out here. No sequences are given here. Not given: the amount of reagent.

Screen: 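Finding genes that stop cells copying their DNA twice in one cycle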 (primary screen)
Cells: human HCT116 colorectal cancer cells
Reagents: single siRNA against human genes
Duration: 3 days
Read-out: 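Nuclei stained with Hoechst and imaged; cell-cycle phase assigned by DNA content; G2 share scaled per plate, non-targeting siRNA 0%, GMNN siRNA 100%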
Direction: G2 robust z-score: higher = more G2 cells, more excess DNA replication
Call rule: 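Active siRNAs have a G2 robust z of 5 or more median absolute deviations over the median, which in these data means about 38% or higher of GMNN control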

| gene | PubChem SID | G2 robust z-score |
| --- | --- | --- |
| PKNOX2 | SID160747213 | -0.496 |
| PKNOX2 | SID160747214 | -0.805 |
| PKNOX2 | SID160747215 | 0.158 |
| BUD23 | SID160754897 | 1.53 |
| BUD23 | SID160754899 | 2.47 |
| BUD23 | SID160754900 | 0.645 |
| PPP1R7 | SID160714778 | 1.18 |
| PPP1R7 | SID160714779 | 7.11 (active) |
| PPP1R7 | SID160731490 | 2.32 |
| NHLRC3 | SID160765730 | -0.819 |
| NHLRC3 | SID160765731 | 0.582 |
| NHLRC3 | SID160765732 | -0.647 |
| NFIC | SID160723949 | -0.235 |
| NFIC | SID160723951 | 0.897 |
| NFIC | SID160778011 | 0.984 |
| AXL | SID160722595 | -1.1 |
| AXL | SID160722606 | 0.955 |
| AXL | SID160722615 | -0.154 |
| ACTG2 | SID160778075 | 0.285 |
| ACTG2 | SID160778086 | -0.368 |
| ACTG2 | SID160778096 | -0.527 |
| UBE2H | SID160718537 | 1.86 |
| UBE2H | SID160718538 | -1.01 |
| UBE2H | SID160718539 | -1.23 |
| RALGPS1 | SID160722707 | -0.849 |
| RALGPS1 | SID160722708 | -0.62 |
| RALGPS1 | SID160735242 | 0.904 |
| SMG6 | SID160735933 | -1.67 |
| SMG6 | SID160735934 | -0.735 |
| SMG6 | SID160735936 | 3.56 |
| RSPO4 | SID160764731 | -0.468 |
| RSPO4 | SID160764732 | -0.171 |
| RSPO4 | SID160764733 | 1.43 |
| LOC729722 (retired record) | SID160773084 | -0.382 |
| LOC729722 (retired record) | SID160773085 | 2.33 |
| LOC729722 (retired record) | SID160773086 | 1 |
| PAXIP1 | SID160734221 | -0.853 |
| PAXIP1 | SID160734231 | 0.938 |
| PAXIP1 | SID160734241 | 0.826 |
| TBPL1 | SID160722402 | -0.698 |
| TBPL1 | SID160722403 | 3.5 |
| TBPL1 | SID160722404 | -0.664 |
| PGBD5 | SID160748980 | 0.177 |
| PGBD5 | SID160748983 | 0.861 |
| PGBD5 | SID160748984 | -0.625 |
| PDPK1 | SID160714076 | -0.645 |
| PDPK1 | SID160714077 | -0.842 |
| PDPK1 | SID160714078 | -1.15 |
